Test results taken from the supplement of paper PMC10849652.
The list shows a part of the results.

Sequences of proteins named here, by UniProt entry; tags and fusion partners are left off. A change or cut given only in a name is not applied to a line headed by its entry.
UniProt P33993, whole entry, looked up: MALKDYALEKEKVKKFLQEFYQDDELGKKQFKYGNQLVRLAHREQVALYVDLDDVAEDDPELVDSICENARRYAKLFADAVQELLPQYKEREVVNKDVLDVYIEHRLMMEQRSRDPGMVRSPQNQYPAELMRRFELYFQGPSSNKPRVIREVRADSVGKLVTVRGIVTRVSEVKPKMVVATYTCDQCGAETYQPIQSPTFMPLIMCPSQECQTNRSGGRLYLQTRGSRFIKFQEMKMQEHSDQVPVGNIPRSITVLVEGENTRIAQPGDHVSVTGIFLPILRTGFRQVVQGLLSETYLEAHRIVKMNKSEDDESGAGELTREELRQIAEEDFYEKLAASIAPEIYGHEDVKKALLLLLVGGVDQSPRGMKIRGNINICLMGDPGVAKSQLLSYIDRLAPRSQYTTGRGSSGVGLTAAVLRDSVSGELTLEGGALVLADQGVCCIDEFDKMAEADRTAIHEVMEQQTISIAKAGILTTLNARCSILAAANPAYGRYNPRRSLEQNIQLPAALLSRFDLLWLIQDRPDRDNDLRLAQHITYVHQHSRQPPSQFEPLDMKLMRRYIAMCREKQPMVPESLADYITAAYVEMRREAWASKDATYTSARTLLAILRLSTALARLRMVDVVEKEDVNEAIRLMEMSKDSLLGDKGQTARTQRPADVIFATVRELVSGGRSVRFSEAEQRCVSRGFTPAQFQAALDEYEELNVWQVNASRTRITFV
UniProt Q9UBP6: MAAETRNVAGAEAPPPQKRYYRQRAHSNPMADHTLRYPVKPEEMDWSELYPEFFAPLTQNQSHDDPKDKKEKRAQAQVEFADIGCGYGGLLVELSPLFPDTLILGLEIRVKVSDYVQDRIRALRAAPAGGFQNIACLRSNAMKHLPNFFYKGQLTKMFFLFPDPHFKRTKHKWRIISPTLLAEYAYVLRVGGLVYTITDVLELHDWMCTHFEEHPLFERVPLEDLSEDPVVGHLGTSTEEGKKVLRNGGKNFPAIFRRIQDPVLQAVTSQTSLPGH
UniProt Q9UBB5, whole entry, looked up: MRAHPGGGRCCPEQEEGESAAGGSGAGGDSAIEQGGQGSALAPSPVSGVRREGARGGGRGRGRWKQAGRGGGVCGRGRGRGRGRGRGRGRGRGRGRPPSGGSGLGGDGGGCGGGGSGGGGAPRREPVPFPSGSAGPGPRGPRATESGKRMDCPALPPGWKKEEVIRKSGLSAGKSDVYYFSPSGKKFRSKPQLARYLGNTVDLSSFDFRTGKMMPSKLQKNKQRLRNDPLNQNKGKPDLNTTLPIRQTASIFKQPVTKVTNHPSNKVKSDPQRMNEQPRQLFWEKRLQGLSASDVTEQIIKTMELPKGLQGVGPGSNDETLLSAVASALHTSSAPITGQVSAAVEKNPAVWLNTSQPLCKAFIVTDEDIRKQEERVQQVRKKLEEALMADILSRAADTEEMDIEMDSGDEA
UniProt Q96N66: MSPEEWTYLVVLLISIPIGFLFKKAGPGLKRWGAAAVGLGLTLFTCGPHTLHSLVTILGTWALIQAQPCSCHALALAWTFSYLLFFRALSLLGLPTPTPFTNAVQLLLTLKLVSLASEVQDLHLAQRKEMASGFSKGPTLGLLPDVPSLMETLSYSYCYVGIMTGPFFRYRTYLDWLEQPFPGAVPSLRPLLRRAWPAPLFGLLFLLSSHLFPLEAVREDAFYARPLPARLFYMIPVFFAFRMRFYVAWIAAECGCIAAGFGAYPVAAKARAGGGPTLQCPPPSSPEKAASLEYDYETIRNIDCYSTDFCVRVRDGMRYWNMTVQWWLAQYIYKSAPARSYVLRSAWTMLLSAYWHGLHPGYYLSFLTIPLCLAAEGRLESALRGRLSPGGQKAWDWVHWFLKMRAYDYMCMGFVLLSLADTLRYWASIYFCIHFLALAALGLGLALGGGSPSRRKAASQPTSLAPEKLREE
UniProt Q9H944: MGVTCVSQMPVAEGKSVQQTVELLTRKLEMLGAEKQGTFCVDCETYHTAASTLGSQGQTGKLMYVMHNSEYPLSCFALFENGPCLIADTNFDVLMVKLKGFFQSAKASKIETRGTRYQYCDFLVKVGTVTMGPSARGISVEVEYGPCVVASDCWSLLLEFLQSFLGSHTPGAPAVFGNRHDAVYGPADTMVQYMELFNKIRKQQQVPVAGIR
UniProt Q8NI22: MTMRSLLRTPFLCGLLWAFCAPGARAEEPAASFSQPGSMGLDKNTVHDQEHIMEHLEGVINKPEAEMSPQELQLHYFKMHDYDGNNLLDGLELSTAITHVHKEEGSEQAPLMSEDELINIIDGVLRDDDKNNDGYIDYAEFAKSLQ
UniProt Q7Z434: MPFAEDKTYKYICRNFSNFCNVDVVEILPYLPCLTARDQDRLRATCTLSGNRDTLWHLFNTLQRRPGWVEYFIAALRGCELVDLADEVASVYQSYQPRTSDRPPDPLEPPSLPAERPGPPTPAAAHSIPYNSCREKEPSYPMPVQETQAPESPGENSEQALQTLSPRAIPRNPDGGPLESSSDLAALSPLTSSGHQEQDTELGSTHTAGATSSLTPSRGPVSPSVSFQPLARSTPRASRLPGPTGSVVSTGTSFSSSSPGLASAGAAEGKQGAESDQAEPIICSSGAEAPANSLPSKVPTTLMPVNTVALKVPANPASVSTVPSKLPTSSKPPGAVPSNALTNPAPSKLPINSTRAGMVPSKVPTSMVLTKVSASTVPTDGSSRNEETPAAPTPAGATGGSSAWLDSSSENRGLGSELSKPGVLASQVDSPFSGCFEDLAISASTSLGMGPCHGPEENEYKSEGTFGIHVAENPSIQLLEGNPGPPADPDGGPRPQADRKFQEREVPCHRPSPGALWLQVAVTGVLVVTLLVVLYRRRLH
UniProt Q8TCB7: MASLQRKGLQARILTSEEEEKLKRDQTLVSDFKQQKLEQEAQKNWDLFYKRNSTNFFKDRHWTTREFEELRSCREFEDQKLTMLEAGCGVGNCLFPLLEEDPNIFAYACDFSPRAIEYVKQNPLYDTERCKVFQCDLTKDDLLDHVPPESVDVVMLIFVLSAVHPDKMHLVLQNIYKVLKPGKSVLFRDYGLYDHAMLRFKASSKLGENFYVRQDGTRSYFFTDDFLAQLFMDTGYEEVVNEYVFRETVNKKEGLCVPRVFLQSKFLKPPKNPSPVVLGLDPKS
UniProt Q14814: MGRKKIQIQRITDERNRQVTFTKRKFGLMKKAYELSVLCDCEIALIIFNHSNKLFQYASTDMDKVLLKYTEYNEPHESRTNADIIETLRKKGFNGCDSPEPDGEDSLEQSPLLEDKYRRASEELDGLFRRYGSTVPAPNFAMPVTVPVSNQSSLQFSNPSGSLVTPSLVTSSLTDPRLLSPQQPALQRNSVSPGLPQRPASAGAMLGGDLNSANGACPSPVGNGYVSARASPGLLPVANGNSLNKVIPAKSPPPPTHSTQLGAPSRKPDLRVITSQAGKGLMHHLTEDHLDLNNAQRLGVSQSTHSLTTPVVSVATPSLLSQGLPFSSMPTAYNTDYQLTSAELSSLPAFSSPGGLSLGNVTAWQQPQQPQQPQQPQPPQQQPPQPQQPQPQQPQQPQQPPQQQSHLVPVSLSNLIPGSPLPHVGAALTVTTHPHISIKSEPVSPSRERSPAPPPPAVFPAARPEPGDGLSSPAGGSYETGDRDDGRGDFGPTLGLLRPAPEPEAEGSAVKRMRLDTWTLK
UniProt O75448: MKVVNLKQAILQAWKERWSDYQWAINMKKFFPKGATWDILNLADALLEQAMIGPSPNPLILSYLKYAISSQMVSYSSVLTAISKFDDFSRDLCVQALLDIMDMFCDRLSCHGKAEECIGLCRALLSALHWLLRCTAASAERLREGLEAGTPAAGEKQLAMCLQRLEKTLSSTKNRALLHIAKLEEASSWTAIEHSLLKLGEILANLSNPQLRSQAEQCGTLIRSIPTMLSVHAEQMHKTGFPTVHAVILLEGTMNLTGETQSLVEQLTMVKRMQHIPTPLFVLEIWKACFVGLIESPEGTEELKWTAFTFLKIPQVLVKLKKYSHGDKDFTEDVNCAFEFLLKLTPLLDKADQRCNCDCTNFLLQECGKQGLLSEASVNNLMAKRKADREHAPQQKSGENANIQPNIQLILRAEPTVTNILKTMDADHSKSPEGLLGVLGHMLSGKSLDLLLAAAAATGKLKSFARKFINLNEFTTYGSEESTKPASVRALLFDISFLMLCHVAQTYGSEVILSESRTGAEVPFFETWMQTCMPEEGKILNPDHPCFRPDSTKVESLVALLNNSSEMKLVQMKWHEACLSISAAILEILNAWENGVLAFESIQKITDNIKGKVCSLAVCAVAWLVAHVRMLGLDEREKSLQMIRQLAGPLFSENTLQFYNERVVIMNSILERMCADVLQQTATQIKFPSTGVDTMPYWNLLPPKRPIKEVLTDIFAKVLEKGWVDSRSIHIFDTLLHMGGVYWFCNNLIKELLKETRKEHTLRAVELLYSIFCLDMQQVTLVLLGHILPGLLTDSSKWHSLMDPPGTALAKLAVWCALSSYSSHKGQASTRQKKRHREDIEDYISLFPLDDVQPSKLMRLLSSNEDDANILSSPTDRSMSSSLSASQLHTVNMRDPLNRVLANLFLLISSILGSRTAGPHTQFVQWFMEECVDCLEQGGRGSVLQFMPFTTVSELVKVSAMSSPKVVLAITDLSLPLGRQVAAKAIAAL
UniProt O43934: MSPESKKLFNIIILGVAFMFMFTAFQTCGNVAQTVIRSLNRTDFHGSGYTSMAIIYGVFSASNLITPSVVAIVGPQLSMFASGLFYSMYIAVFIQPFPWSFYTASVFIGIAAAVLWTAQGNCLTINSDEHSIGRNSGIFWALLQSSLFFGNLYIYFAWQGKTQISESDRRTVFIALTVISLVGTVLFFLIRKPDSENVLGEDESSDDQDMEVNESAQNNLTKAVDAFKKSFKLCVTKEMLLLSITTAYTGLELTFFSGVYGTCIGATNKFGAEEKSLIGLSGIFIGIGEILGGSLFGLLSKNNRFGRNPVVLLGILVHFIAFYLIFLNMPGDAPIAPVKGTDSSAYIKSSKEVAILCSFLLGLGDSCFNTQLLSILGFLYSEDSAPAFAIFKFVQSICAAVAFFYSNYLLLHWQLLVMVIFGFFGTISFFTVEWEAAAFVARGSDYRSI
UniProt Q15648, whole entry, looked up: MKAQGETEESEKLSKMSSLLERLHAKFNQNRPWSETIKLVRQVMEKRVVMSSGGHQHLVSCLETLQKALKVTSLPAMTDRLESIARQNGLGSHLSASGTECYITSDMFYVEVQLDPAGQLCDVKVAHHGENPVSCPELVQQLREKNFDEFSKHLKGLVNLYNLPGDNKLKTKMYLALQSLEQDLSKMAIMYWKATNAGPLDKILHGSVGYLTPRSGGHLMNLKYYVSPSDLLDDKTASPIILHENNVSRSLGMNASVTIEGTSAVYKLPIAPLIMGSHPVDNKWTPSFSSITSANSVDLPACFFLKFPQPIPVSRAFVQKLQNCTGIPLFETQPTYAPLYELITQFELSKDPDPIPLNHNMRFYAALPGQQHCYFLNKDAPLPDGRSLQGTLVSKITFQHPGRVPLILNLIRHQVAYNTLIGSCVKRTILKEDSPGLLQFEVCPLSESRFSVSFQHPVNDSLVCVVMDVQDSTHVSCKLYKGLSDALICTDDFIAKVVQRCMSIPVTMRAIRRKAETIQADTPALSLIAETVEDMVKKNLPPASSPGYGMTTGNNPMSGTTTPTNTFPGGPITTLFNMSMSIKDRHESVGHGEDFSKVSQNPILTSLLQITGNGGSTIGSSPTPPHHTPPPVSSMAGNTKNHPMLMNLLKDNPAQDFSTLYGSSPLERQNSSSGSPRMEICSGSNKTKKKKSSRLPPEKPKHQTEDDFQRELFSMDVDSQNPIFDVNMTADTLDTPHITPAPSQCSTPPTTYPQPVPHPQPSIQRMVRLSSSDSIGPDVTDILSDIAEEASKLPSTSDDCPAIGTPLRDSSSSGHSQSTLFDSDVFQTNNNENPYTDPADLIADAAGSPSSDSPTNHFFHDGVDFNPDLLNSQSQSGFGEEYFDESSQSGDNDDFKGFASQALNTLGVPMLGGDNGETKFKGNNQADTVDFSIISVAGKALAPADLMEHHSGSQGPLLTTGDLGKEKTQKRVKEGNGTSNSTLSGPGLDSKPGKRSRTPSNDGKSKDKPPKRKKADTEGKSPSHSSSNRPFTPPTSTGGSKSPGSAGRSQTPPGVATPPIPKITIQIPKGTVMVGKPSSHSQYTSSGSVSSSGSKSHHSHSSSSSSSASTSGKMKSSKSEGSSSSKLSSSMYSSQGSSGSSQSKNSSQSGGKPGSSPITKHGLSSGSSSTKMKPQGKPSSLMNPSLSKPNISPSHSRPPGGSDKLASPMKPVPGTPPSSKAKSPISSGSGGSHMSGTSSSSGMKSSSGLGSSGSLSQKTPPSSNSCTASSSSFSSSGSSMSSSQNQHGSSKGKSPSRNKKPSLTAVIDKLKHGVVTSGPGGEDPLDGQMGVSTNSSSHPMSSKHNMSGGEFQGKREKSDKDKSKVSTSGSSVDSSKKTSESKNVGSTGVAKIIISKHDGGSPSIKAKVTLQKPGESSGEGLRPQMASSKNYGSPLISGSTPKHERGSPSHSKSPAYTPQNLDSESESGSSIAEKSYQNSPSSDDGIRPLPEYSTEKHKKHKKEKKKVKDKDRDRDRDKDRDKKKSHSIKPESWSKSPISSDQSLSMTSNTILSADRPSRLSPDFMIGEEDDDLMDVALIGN

Legend:
Test in all cases: log2 fold change, soluble protein after heating vs DMSO (PISA); higher = thermal stabilisation; K562 cells, 10 uM, 30 min; active = over 0.2 and 3.5 SD of the protein, either way, in both replicates (recomputed)
saracatinib = compound: CN1CCN(CCOc2cc(OC3CCOCC3)c3c(Nc4c(Cl)ccc5c4OCO5)ncnc3c2)CC1 [saracatinib]
How it was run: (§1)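 K562 cells at 2×10^6 cells/mL were treated for 30 min with 10 μM compound, and aliquots were heated for 3 min over 48°C-58°C before pooling. Extraction used PBS with 0.5% NP-40 at 4°C, and soluble protein was the supernatant after 21,000xg for 90 min, measured by TMTpro 16plex LC-MS/MS with channel sums equalised. Thermal stability values, relative to control samples and from duplicates, are log2 fold changes.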

sotrastaurin = compound: CN1CCN(c2nc(C3=C(c4c[nH]c5ccccc45)C(=O)NC3=O)c3ccccc3n2)CC1 [sotrastaurin]
How it was run: as §1

alvocidib = compound: CN1CC[C@H](c2c(O)cc(O)c3c(=O)cc(-c4ccccc4Cl)oc23)[C@H](O)C1 [alvocidib]
How it was run: as §1

Tubastatin A = compound: CN1CCc2c(c3ccccc3n2Cc2ccc(C(=O)NO)cc2)C1 [Tubastatin A]
How it was run: as §1

[1] = compound: CNC(=O)C1=CC=CC=C1NC2=NC(=NC=C2Cl)NC3=C(C=C(C=C3)N4CCOCC4)OC
How it was run: as §1

defactinib = compound: CNC(=O)c1ccc(Nc2ncc(C(F)(F)F)c(NCc3nccnc3N(C)S(C)(=O)=O)n2)cc1 [defactinib]
How it was run: as §1

rucaparib = compound: CNCc1ccc(-c2[nH]c3cc(F)cc4c3c2CCNC4=O)cc1 [rucaparib]
How it was run: as §1

[2] = compound: CNc1nc(-c2ccc3c(N)n[nH]c3c2)cc(N2C[C@@H](C(=O)NC3CCCCC3)CC[C@H]2C)n1
How it was run: as §1

encorafenib = compound: COC(=O)N[C@@H](C)CNc1nccc(-c2cn(C(C)C)nc2-c2cc(Cl)cc(NS(C)(=O)=O)c2F)n1 [encorafenib]
How it was run: as §1

[3] = compound: COC(=O)[C@H](CCSC)NC(=O)C1=C(C=C(C=C1)NC[C@H](CS)N)C2=CC=CC=C2
How it was run: as §1

[4] = compound: COC1=CC=C(C=C1)CN2C=CC3=C2C=C(C=C3)C(=O)NO
How it was run: as §1

filanesib = compound: CON(C)C(=O)N1N=C(c2cc(F)ccc2F)S[C@@]1(CCCN)c1ccccc1 [filanesib]
How it was run: as §1

zotarolimus = compound: CO[C@H]1C[C@@H]2CC[C@@H](C)[C@@](O)(O2)C(=O)C(=O)N2CCCC[C@H]2C(=O)O[C@H]([C@H](C)C[C@@H]2CC[C@H](n3cnnn3)[C@H](OC)C2)CC(=O)[C@H](C)/C=C(\C)[C@@H](O)[C@@H](OC)C(=O)[C@H](C)C[C@H](C)/C=C/C=C/C=C/1C [zotarolimus]
How it was run: as §1

idasanutlin = compound: COc1cc(C(=O)O)ccc1NC(=O)[C@@H]1N[C@@H](CC(C)(C)C)[C@](C#N)(c2ccc(Cl)cc2F)[C@H]1c1cccc(Cl)c1F [idasanutlin]
How it was run: as §1

alisertib = compound: COc1cc(Nc2ncc3c(n2)-c2ccc(Cl)cc2C(c2c(F)cccc2OC)=NC3)ccc1C(=O)O [alisertib]
How it was run: as §1

[5] = compound: COc1cc2nc(-c3cc(F)ccc3O)nc(N[C@@H]3CNC[C@H]3C(C)(C)O)c2cc1OC
How it was run: as §1

gefitinib = compound: COc1cc2ncnc(Nc3ccc(F)c(Cl)c3)c2cc1OCCCN1CCOCC1 [gefitinib]
How it was run: as §1

[6] = compound: COc1cccc2cc(-c3nc([C@H]4CC[C@H](C(=O)O)CC4)n4ncnc(N)c34)[nH]c12
How it was run: as §1

lapatinib = compound: CS(=O)(=O)CCNCc1ccc(-c2ccc3ncnc(Nc4ccc(OCc5cccc(F)c5)c(Cl)c4)c3c2)o1 [lapatinib]
How it was run: as §1

pictilisib = compound: CS(=O)(=O)N1CCN(Cc2cc3nc(-c4cccc5[nH]ncc45)nc(N4CCOCC4)c3s2)CC1 [pictilisib]
How it was run: as §1

Row | Target | log2 fold change (saracatinib) | log2 fold change (sotrastaurin) | log2 fold change (alvocidib) | log2 fold change (Tubastatin A) | log2 fold change [1] | log2 fold change (defactinib) | log2 fold change (rucaparib) | log2 fold change [2] | log2 fold change (encorafenib) | log2 fold change [3] | log2 fold change [4] | log2 fold change (filanesib) | log2 fold change (zotarolimus) | log2 fold change (idasanutlin) | log2 fold change (alisertib) | log2 fold change [5] | log2 fold change (gefitinib) | log2 fold change [6] | log2 fold change (lapatinib) | log2 fold change (pictilisib)
1 | MCMBP (UniProt Q9BTE3) | inactive: -0.008 | inactive: -0.042 | inactive: -0.032 | inactive: 0.022 | inactive: 0.05 | inactive: -0.096 | inactive: 0.128 | inactive: 0.003 | inactive: -0.059 | inactive: -0.025 | inactive: 0.038 | inactive: 0.042 | inactive: -0.016 | inactive: -0.12 | inactive: -0.02 | inactive: 0.003 | inactive: -0.019 | inactive: -0.064 | inactive: 0.036 | inactive: -0.03
2 | MCM7 (UniProt P33993) | inactive: 0.033 | inactive: -0.003 | inactive: -0.152 | inactive: -0.016 | inactive: -0.022 | inactive: -0.1 | inactive: -0.029 | inactive: 0 | inactive: -0.007 | inactive: -0.005 | inactive: 0.059 | inactive: -0.049 | inactive: 0.023 | inactive: -0.03 | inactive: -0.056 | inactive: -0.02 | inactive: 0.007 | inactive: 0.015 | inactive: 0.005 | inactive: -0.003
3 | MED18 (UniProt Q9BUE0) | inactive: -0.026 | inactive: 0.055 | inactive: -0.049 | inactive: 0.014 | inactive: -0.028 | inactive: -0.08 | inactive: 0.039 | inactive: 0.007 | inactive: 0.009 | inactive: -0.064 | inactive: 0.009 | inactive: 0.023 | inactive: 0 | inactive: 0.064 | inactive: -0.03 | inactive: -0.049 | inactive: -0.056 | inactive: 0.049 | inactive: 0.024 | inactive: 0.003
4 | METTL1 (UniProt Q9UBP6) | inactive: 0.019 | inactive: 0.012 | inactive: -0.022 | inactive: -0.058 | inactive: -0.032 | inactive: -0.102 | inactive: 0.015 | inactive: 0.023 | inactive: 0 | inactive: -0.042 | inactive: -0.139 | inactive: -0.066 | inactive: -0.001 | inactive: -0.03 | inactive: -0.021 | inactive: 0.041 | inactive: 0.026 | inactive: 0.026 | inactive: 0.017 | inactive: 0.017
5 | MBD2 (UniProt Q9UBB5) | inactive: -0.071 | inactive: -0.085 | inactive: 0.028 | inactive: -0.041 | inactive: -0.323 | inactive: -0.143 |  | inactive: -0.006 |  | inactive: 0.03 |  | inactive: 0.256 | inactive: 0.056 | inactive: 0.039 | inactive: -0.042 | inactive: -0.16 | inactive: -0.019 | inactive: -0.074 | inactive: 0.118 | inactive: 0.145
6 | MBOAT7 (UniProt Q96N66) | inactive: 0.069 | inactive: -0.014 | inactive: -0.021 | inactive: -0.049 | inactive: -0.008 | inactive: 0.01 | inactive: -0.021 | inactive: -0.004 | inactive: -0.015 | inactive: -0.027 | inactive: -0.001 | inactive: -0.021 | inactive: -0.013 | inactive: -0.047 | inactive: -0.071 | inactive: 0.004 | inactive: -0.007 | inactive: 0.059 | inactive: -0.02 | inactive: -0.082
7 | MED20 (UniProt Q9H944) | inactive: -0.084 | inactive: 0.018 | inactive: -0.04 | inactive: -0.03 | inactive: -0.061 | inactive: -0.027 | inactive: -0.057 | inactive: -0.08 | inactive: 0.036 | inactive: -0.035 | inactive: 0.065 | inactive: 0.066 | inactive: 0.029 | inactive: -0.042 | inactive: -0.015 | inactive: -0.013 | inactive: 0.013 | inactive: 0.015 | inactive: -0.024 | inactive: 0.004
8 | MCFD2 (UniProt Q8NI22) | inactive: -0.042 | inactive: 0.118 | inactive: -0.018 | inactive: -0.017 | inactive: -0.034 | inactive: -0.008 | inactive: 0.102 | inactive: -0.172 | inactive: -0.051 | inactive: 0.248 | inactive: 0.043 | inactive: 0.126 | inactive: 0.116 | inactive: 0.008 | inactive: -0.269 | inactive: -0.214 | inactive: 0.035 | inactive: 0.038 | inactive: -0.073 | inactive: -0.027
9 | MBLAC2 (UniProt Q68D91) | inactive: 0.048 | inactive: 0.045 | inactive: -0.028 | inactive: 0.044 | inactive: -0.043 | inactive: -0.018 | inactive: -0.037 | inactive: -0.036 | inactive: -0.043 | inactive: 0.031 | inactive: -0.089 | inactive: 0.002 | inactive: 0.02 | inactive: 0.012 | inactive: -0.011 | inactive: 0.011 | inactive: 0.019 | inactive: 0.054 | inactive: 0.008 | inactive: 0.043
10 | MAVS (UniProt Q7Z434) | inactive: 0.041 | inactive: 0.021 | inactive: -0.01 | inactive: -0.003 | inactive: -0.023 | inactive: -0.002 | inactive: 0.014 | inactive: -0.025 | inactive: -0.023 | inactive: -0.008 | inactive: 0.047 | inactive: -0.022 | inactive: 0.016 | inactive: -0.004 | inactive: -0.093 | inactive: 0.008 | inactive: 0.014 | inactive: 0.053 | inactive: -0.009 | inactive: 0.053
11 | METTL6 (UniProt Q8TCB7) | inactive: -0.147 | inactive: 0.108 | inactive: -0.041 | inactive: -0.022 | inactive: 0.202 |  |  | inactive: 0.027 |  |  | inactive: -0.319 | inactive: -0.171 | inactive: -0.026 | inactive: 0.007 | inactive: -0.092 | inactive: 0.175 |  | inactive: 0.315 | inactive: -0.091 | inactive: 0.34
12 | MEF2D (UniProt Q14814) | inactive: -0.002 | inactive: 0.047 | inactive: -0.048 | inactive: -0.015 | inactive: -0.003 | inactive: -0.035 | inactive: -0.009 | inactive: -0.064 | inactive: -0.026 | inactive: 0.107 | inactive: -0.094 | inactive: 0.06 | inactive: -0.018 | inactive: -0.004 | inactive: -0.086 | inactive: -0.012 | inactive: 0.04 | inactive: 0.06 | inactive: -0.059 | inactive: 0.054
13 | METTL3 (UniProt Q86U44) | inactive: 0.025 | inactive: 0.02 | inactive: -0.02 | inactive: -0.001 | inactive: -0.009 | inactive: -0.053 | inactive: -0.033 | inactive: 0.017 | inactive: -0.022 | inactive: -0.029 | inactive: -0.046 | inactive: -0.038 | inactive: 0.018 | inactive: -0.078 | inactive: -0.069 | inactive: 0.013 | inactive: -0.001 | inactive: 0.022 | inactive: -0.012 | inactive: 0.024
14 | MED24 (UniProt O75448) | inactive: 0.02 | inactive: -0.097 | inactive: -0.054 | inactive: -0.095 | inactive: -0.008 | inactive: 0.002 | inactive: 0.083 | inactive: -0.042 | inactive: 0.093 | inactive: 0.034 | inactive: 0.056 | inactive: -0.006 | inactive: 0.068 | inactive: 0.017 | inactive: -0.033 | inactive: -0.1 | inactive: 0.111 | inactive: 0.031 | inactive: 0.042 | inactive: 0.095
15 | MFSD11 (UniProt O43934) | inactive: 0.092 | inactive: 0.085 |  | inactive: 0.005 |  | inactive: -0.033 | inactive: -0.002 | inactive: -0.127 | inactive: -0.047 | inactive: -0.015 | inactive: -0.029 | active: -0.464 | inactive: -0.003 | inactive: -0.055 | inactive: -0.009 | inactive: -0.046 | inactive: -0.064 | inactive: -0.002 | inactive: 0.041 | inactive: 0.02
16 | MED1 (UniProt Q15648) | inactive: 0.001 | inactive: -0.092 |  | inactive: -0.025 | inactive: 0.042 | inactive: -0.005 | inactive: 0.067 | inactive: -0.045 | inactive: 0.009 | inactive: 0.033 | inactive: -0.051 | inactive: 0.116 | inactive: 0.042 | inactive: 0.056 | inactive: -0.056 | inactive: -0.063 | inactive: -0.039 | inactive: 0.016 | inactive: 0.114 | inactive: 0.077

Reformatted as comma-separated lines: entries from further up.
Row,Target,log2 fold change (saracatinib),log2 fold change (sotrastaurin),log2 fold change (alvocidib),log2 fold change (Tubastatin A),log2 fold change [1],log2 fold change (defactinib),log2 fold change (rucaparib),log2 fold change [2],log2 fold change (encorafenib),log2 fold change [3],log2 fold change [4],log2 fold change (filanesib),log2 fold change (zotarolimus),log2 fold change (idasanutlin),log2 fold change (alisertib),log2 fold change [5],log2 fold change (gefitinib),log2 fold change [6],log2 fold change (lapatinib),log2 fold change (pictilisib)
10,MAVS (UniProt Q7Z434),inactive: 0.041,inactive: 0.021,inactive: -0.01,inactive: -0.003,inactive: -0.023,inactive: -0.002,inactive: 0.014,inactive: -0.025,inactive: -0.023,inactive: -0.008,inactive: 0.047,inactive: -0.022,inactive: 0.016,inactive: -0.004,inactive: -0.093,inactive: 0.008,inactive: 0.014,inactive: 0.053,inactive: -0.009,inactive: 0.053
11,METTL6 (UniProt Q8TCB7),inactive: -0.147,inactive: 0.108,inactive: -0.041,inactive: -0.022,inactive: 0.202,,,inactive: 0.027,,,inactive: -0.319,inactive: -0.171,inactive: -0.026,inactive: 0.007,inactive: -0.092,inactive: 0.175,,inactive: 0.315,inactive: -0.091,inactive: 0.34
12,MEF2D (UniProt Q14814),inactive: -0.002,inactive: 0.047,inactive: -0.048,inactive: -0.015,inactive: -0.003,inactive: -0.035,inactive: -0.009,inactive: -0.064,inactive: -0.026,inactive: 0.107,inactive: -0.094,inactive: 0.06,inactive: -0.018,inactive: -0.004,inactive: -0.086,inactive: -0.012,inactive: 0.04,inactive: 0.06,inactive: -0.059,inactive: 0.054
13,METTL3 (UniProt Q86U44),inactive: 0.025,inactive: 0.02,inactive: -0.02,inactive: -0.001,inactive: -0.009,inactive: -0.053,inactive: -0.033,inactive: 0.017,inactive: -0.022,inactive: -0.029,inactive: -0.046,inactive: -0.038,inactive: 0.018,inactive: -0.078,inactive: -0.069,inactive: 0.013,inactive: -0.001,inactive: 0.022,inactive: -0.012,inactive: 0.024
